According to patent publication US7045600B2, “Modification of collagenous materials and medical treatment, diagnosis and monitoring of fibrotic conditions” (Nederlandse Organisatie voor …, priority 1999, dated 2006):
At least one compound was matched to its structure with a doubt left.

Key:
[1] = test system: PLOD2B mRNA; assay: PLOD2B mRNA levels by real-time PCR in minoxidil-treated human skin fibroblasts and myofibroblasts; assay type: cell-based; details: minoxidil added to the culture medium
Protocol: To substantiate that minoxidil suppresses the expression of PLOD2, human skin fibroblasts and myofibroblasts were cultured in 25 cm^2 flasks in DMEM (Gibco) supplemented with 10% FBS in 5% CO2. At near confluency the fibroblasts and myofibroblasts were incubated for 41 hours in medium containing 1 mM minoxidil. Minoxidil was dissolved at room temperature in medium with 10% FBS for 8 hours which was filtered prior to use. As a control both cell types were incubated for 41 hours in medium without minoxidil. At the end of the incubation period, the cells were washed with PBS and lysed with 600 μl RLT-buffer (RNeasy kit, Qiagen). RNA was isolated following the manufacturers protocol and subsequently reverse transcribed into cDNA (first strand cDNA synthesis kit, Roche Molecular Biochemicals). The levels of PLOD2B mRNA in the untreated and minoxidil-treated cells were quantified using real-time PCR as described in example 8. […]
Real time PCR amplification of PLOD2 and β2-microglobulin was performed, using specific primers (PLOD2 forward primer: 5′ […] 3′ (SEQ ID NO:48) PLOD2 reverse primer: 5′ […] 3′ (SEQ ID NO:49)β2-microglobulin forward primer; 5′ […] 3 (SEQ ID NO:50)β32-microglobulin reverse primer 5′ […] 3′) (SEQ ID NO:51) and specific molecular beacons PLOD2: 5′ FAM-cgtgcg[…] […] Data was analysed using sequence detector V1.7 software.

[2] = test system: PLOD1 gene; details: cited from earlier work
[3] = test system: Lysyl oxidase; assay: Lysyl oxidase levels after minoxidil treatment of fibroblasts and myofibroblasts; assay type: cell-based, human; details: 1 mM, 41 hours

Nc1cc(N2CCCCC2)nc(N)[n+]1[O-] [minoxidil]
expression of PLOD2B (FIG. 8 legend, in words) [1]: inhibited | transcription of the PLOD1 gene [2]: inhibit the transcription | Lysyl oxidase levels [3]: not affected
